Experimental data reported in patent publication US9598354B2, “Fumarate compounds, pharmaceutical compositions thereof, and methods of use” (priority 2015, dated 2017).
Some results were stated once for a whole list of compounds, not compound by compound.

Legend:
[1] = Stability of fumarate compounds in PBS buffer; format: physicochemical; conditions: PBS 50 mM, pH 7.0 to 7.4, 20 to 30° C., 60 min, HPLC
porcine liver esterase = assay: Hydrolysis of fumarate compounds in vitro by porcine liver esterase; format: in vitro ADME; conditions: porcine liver esterase in PBS pH 7.0 to 8.0, 20 to 30° C., ca. 24 h, HPLC

Row | Compound | stable in PBS buffer [1] [%] | converted to MHF, monoester fumarates, and/or fumaric acid (porcine liver esterase) [%]
1 | CCN(CC)C(=O)C(O)COC(=O)/C=C/C(=O)OC (stereo not drawn) [Compound 1, O4-[3-(Diethylamino)-2-hydroxy-3-oxo-propyl] O1-methyl (E)-but-2-enedioate] | > 85 | > 30
2 | COCCN(CCOC)C(=O)C(O)COC(=O)/C=C/C(=O)OC (stereo not drawn) [Compound 2, O4-[3-[Bis(2-methoxyethyl)amino]-2-hydroxy-3-oxo-propyl] O1-methyl (E)-but-2-enedioate] | > 85 | > 30
3 | COC(=O)/C=C/C(=O)OCC(O)C(=O)N1CCOCC1 (stereo not drawn) [Compound 3, O4-(2-Hydroxy-3-morpholino-3-oxo-propyl) O1-methyl (E)-but-2-enedioate] | > 85 | > 30
